This test in a line: qHTS Assay for Lipid Storage Modulators in Drosophila S3 Cells.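 For cell number change: cells counted by Cell Tracker Red CMTPX staining in the red channel.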 Conditions: BODIPY lipid droplet fluorescence, 18-24 h; for cell number change: measured here: cell count max response, cells fed with added oleic acid. In a few lines:
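Drosophila S3 cells loaded with oleic acid (400 uM, as added) and compounds at several concentrations; lipid droplets imaged by 488-nm laser-scanning cytometry, 500–530 nm intensity and object ratio to cell channel. Percent activity normalized to 20 uM Triacsin C.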
(qHTS replaces the single test concentration by a dilution series.)

Setting [1] is: measured here: lipid fluorescence (Fed channel) AC50, cells fed with added oleic acid.
Where [2] appears, read: measured here: cell number channel AC50, cells fed with added oleic acid.

We go through 61 compounds from PubChem BioAssay AID2685 (National Center for Advancing Translational Sciences (NCATS), 2010).

The list shows a part of the results. These are further read-outs of the screen, such as a control signal, another cell line or another target. No call is given for them. The list favours compounds with an active or inconclusive main result. Words in brackets tell the shape of the fitted curve; partial curves, single points and poor fits give uncertain potencies.

The term AC50 denotes the concentration at which the activity in the assay is half-maximal. A higher AC50 goes with weaker potency.

`CCOC(=O)N1CCN(CC(O)COc2ccc(C)cc2C(C)(C)C)CC1` (stereo unspecified): the cell number change is -17.7%. Further, the AC50 under setting [1] is 6.51 µM [falling, single point].
Regarding `NC(=O)c1c(NC(=O)CN2C(=O)CCC2=O)sc2c1CCCCC2`, the cell number change was found to be 44.1%.
Still for that read-out and setting: the value for `CCOC(=O)c1ccc(NC(=O)NCc2ccccn2)cc1` was 12.1%.
`Cc1cnn(C(=S)NCC2CCCO2)c1` (stereo unspecified): the cell number change was -5.04%. The concentration at half-maximal activity (AC50) under setting [1] is 7.31 µM [falling, partial curve, poor fit].
Turning to `O=C(Nc1ccc(Oc2ccccc2)cc1)C1CCCN(c2ncccn2)C1` (stereo unspecified), the cell number change was found to be 14.9%. For the same compound, the half-maximal activity concentration (AC50) under setting [1] is 0.411 µM [rising, partial curve, poor fit].
As for `NS(=O)(=O)c1ccc(NC(=O)COc2ncnc3c2cnn3-c2ccccc2)cc1`, the cell number change stood at 141%. Moreover, under setting [1], the concentration at half-maximal activity (AC50) is 6.51 µM [falling, single point].
Turning to `CCOC(=O)COc1ccc2c(=O)c(-c3ccccc3OC)coc2c1`, the cell number change is -25.4%. For the same compound, under setting [1], the AC50 was 2.06 µM [falling, partial curve].
As to `CCCC(=O)C1=C(O)C(c2cccc(Oc3ccccc3)c2)CCC1=O` (stereo unspecified), the cell number change came to 11.4%. In addition, the half-maximal activity concentration (AC50) under setting [2] was 2.31 µM [falling, partial curve].
Turning to `Cc1ccc(C(C(=O)NC2CCCC2)N(CCCO)C(=O)Cn2nnc(-c3ccc(C)o3)n2)cc1` (stereo unspecified), the cell number change was -14.5%. Besides, the AC50 under setting [1] was 35.5 µM [rising, single point].
Regarding `COc1cc(NC(=O)COC(=O)C=C(C)C)c(C)cc1[N+](=O)[O-]`, under setting [1], the half-maximal activity concentration (AC50) is 2.91 µM [rising, partial curve, poor fit].
As for `COc1ccc2c(-c3ccccc3)cc(=O)[nH]c2c1`, the cell number change amounted to 58.8%. In addition, under setting [2], the concentration at half-maximal activity (AC50) was 1.64 µM [rising, full curve]. Also, the AC50 under setting [1] is 2.06 µM [rising, partial curve].
Take `CCC(NC(=S)NC1CCCCC1)c1ccc(C)cc1` (stereo unspecified): the cell number change is -22.8%. Further, under setting [1], the concentration at half-maximal activity (AC50) was 29.1 µM [falling, single point].
On to `CCCn1c(C)cc(C(=O)Cn2nnc3ccccc3c2=O)c1C`, for which the cell number change was determined as 23.5%. Under setting [2], the AC50 is 0.411 µM [rising, single point]. Moreover, the AC50 under setting [1] is 1.03 µM [rising, full curve, poor fit].
With `Nc1nc(CSc2ccccc2)nc(N2CCCCC2)n1`, the cell number change turned out to be 39.1%. Further, the concentration at half-maximal activity (AC50) under setting [2] was 0.259 µM [rising, full curve].
`COc1ccc(C)cc1NC(=O)c1ccc(NC(=O)CC2SC(N3CCCC3)=NC2=O)cc1` (stereo unspecified): the cell number change is -15.8%.
The same measure, in the same setting: the same measure for `COC(=O)c1ccsc1NC(=O)c1ccco1`: 6.48%.
`COC(=O)CN1C(=O)COc2ccc(S(=O)(=O)N3CCCCCC3)cc21`: the cell number change is -27.3%. Further, under setting [1], the AC50 was 29.1 µM [falling, single point].
Take `CN(CC(=O)Nc1cccc(S(=O)(=O)NC2=NCCC2)c1)Cc1cccc(F)c1`: the cell number change turned out to be 22.4%.
Take `Cc1ccc(COC(=O)c2nn(-c3ccccc3)nc2N)cc1`: the concentration at half-maximal activity (AC50) under setting [1] is 2.91 µM [falling, single point].
`O=C(NCC(c1cccnc1)N1CCN(c2ccc(F)cc2)CC1)OCc1ccccc1` (stereo unspecified): the cell number change was -37.4%. In addition, the half-maximal activity concentration (AC50) under setting [2] was 32.6 µM [falling, partial curve, poor fit]. In addition, under setting [1], the AC50 was 0.164 µM [rising, full curve].
Regarding `Cc1ccc(S(=O)(=O)N2CCN(C(=O)N3CCOCC3)CC2)c(C)c1`, the cell number change was found to be 18.1%. Under setting [2], the half-maximal activity concentration (AC50) was 0.184 µM [rising, partial curve, poor fit].
Regarding `O=S(=O)(NN1CCOCC1)c1cc(Cl)cc(Cl)c1O`, the cell number change is -24.8%. The AC50 under setting [2] is 5.8 µM [rising, single point]. Moreover, the AC50 under setting [1] is 11.6 µM [falling, single point].
`CC(=O)c1cccc(NC(=O)c2ccccc2N(Cc2ccccc2)S(C)(=O)=O)c1`: the cell number change is -65.4%. For the same compound, the concentration at half-maximal activity (AC50) under setting [2] is 29.1 µM [falling, single point].
`CCOC(=O)N1CCC(Nc2c(NCCCN3CCN(CC)CC3)c(=O)c2=O)CC1`: the cell number change was -38.4%. Besides, under setting [2], the half-maximal activity concentration (AC50) is 20.6 µM [falling, single point]. For the same compound, under setting [1], the AC50 is 20.6 µM [falling, partial curve].
For the compound `O=C(NCc1cccc(Cl)c1)c1ccc2ccccc2n1`, the cell number change amounted to 7.56%.
With `COc1ccccc1C(=O)Nc1cc2ccccc2oc1=O`, the cell number change is 4.12%.
Regarding `Cc1ccccc1NC(=O)c1ccco1`, the cell number change was found to be 5.87%.
With `COc1cccc(CN(C(=O)/C=C/c2ccc(Cl)cc2)C2CCS(=O)(=O)C2)c1` (stereo unspecified), the cell number change turned out to be 30.1%. Further, under setting [2], the concentration at half-maximal activity (AC50) was 29.1 µM [rising, single point]. The AC50 under setting [1] was 29.1 µM [rising, single point].
As for `CC(NC(=O)Cn1c(=O)[nH]c2ccsc2c1=O)C12CC3CC(CC(C3)C1)C2` (stereo unspecified), the cell number change is -46.9%. The half-maximal activity concentration (AC50) under setting [2] is 20.6 µM [falling, partial curve]. Further, the AC50 under setting [1] is 18.4 µM [falling, partial curve].
As to `CN(c1ccc(C(=O)NCCSC(C)(C)C)cc1)S(C)(=O)=O`, the cell number change was -12.8%. Also, the half-maximal activity concentration (AC50) under setting [1] is 0.291 µM [falling, full curve, poor fit].
For `COc1ccc(NC(=O)c2ccccc2)c([N+](=O)[O-])c1`, the cell number change turned out to be 38.3%. Besides, the AC50 under setting [2] was 32.6 µM [rising, single point]. Moreover, the AC50 under setting [1] was 6.51 µM [falling, single point].
As to `C=CCc1ccc(OCC(O)CN2CCN(Cc3ccccc3)CC2)c(OC)c1` (stereo unspecified), the AC50 under setting [1] was 1.64 µM [falling, single point].
As for `O=C(NCc1n[nH]c(=S)n1-c1ccc(F)cc1)c1ccco1`, the cell number change was -20.2%. Also, the AC50 under setting [2] is 0.013 µM [falling, full curve, poor fit]. Moreover, under setting [1], the concentration at half-maximal activity (AC50) is 0.58 µM [falling, single point].
For `COc1ccc(C(c2nnnn2Cc2ccc(F)cc2)N2CCN(c3ccccc3)CC2)cc1` (stereo unspecified), the cell number change was found to be 5.59%. Besides, the AC50 under setting [1] was 3.66 µM [rising, full curve, poor fit].
With `CC(=O)OCC(=O)Nc1ccccc1OC(F)F`, the cell number change was determined as 5.39%.
With `CCOC(=O)C1CCN(C(=O)c2ccc(NS(=O)(=O)c3ccc(F)cc3C)cc2)CC1`, the cell number change was -28.4%. In addition, the AC50 under setting [1] was 8.2 µM [falling, partial curve].
As for `Cc1cnc(C(=O)N2CCCC(N3CCN(c4cccc(C(F)(F)F)c4)CC3)C2)cn1` (stereo unspecified), the cell number change amounted to 12.5%. The AC50 under setting [2] is 0.00517 µM [rising, full curve, poor fit]. For the same compound, the concentration at half-maximal activity (AC50) under setting [1] was 20.6 µM [rising, single point].
On to `O=S1(=O)CCC(NS(=O)(=O)/C=C/c2ccccc2)C1` (stereo unspecified), for which the cell number change was -73.4%. Further, under setting [2], the AC50 is 29.1 µM [falling, single point].
For `CCc1ccc(NC(=S)N(CCOC)C2CCN(C(C)=O)CC2)cc1`, under setting [1], the concentration at half-maximal activity (AC50) is 1.46 µM [rising, partial curve, poor fit].
Take `CCn1c(-c2ccc(F)cc2)cnc1SCC(=O)N1CCc2ccccc21`: the cell number change was 12.1%. Also, the AC50 under setting [1] was 5.17 µM [rising, partial curve, poor fit].
As for `CCCOc1ccc(-c2c(C(=O)N/N=C(\C)c3cccs3)nnn2-c2nonc2N)cc1`, the cell number change came to 7.67%. Moreover, under setting [1], the AC50 is 29.1 µM [falling, single point].
On to `C[n+]1cccc2ccc3c(c21)OC(N)=C(C#N)C3c1ccccc1` (stereo unspecified), for which, under setting [1], the AC50 is 0.116 µM [falling, full curve, poor fit].
As for `Cc1cc[n+](CC(=O)c2ccc(NC(=O)c3ccccc3)cc2)c2ccccc12`, the cell number change was determined as 8.45%.
Consider `Cc1ccccc1C(=O)NNC1CC(=O)N(c2ccc3c(c2)OCCO3)C1=O` (stereo unspecified), for which the cell number change is -2.91%.
In the case of `COc1ccc(CCn2c(C)c(C(C)=O)c(C(C)=O)c2C)cc1OC`, the AC50 under setting [2] was 0.116 µM [falling, full curve, poor fit].
Take `C=CCNc1sc(C(=O)C2CC2)c(N)c1C#N`: the cell number change worked out at 14.9%. The AC50 under setting [1] was 6.51 µM [rising, single point].
Take `CCOc1ccc(OCC(=O)OC(C)C(=O)Nc2ccc(Cl)cn2)cc1` (stereo unspecified): the cell number change was found to be 50%. For the same compound, the half-maximal activity concentration (AC50) under setting [2] is 0.366 µM [rising, full curve]. For the same compound, the concentration at half-maximal activity (AC50) under setting [1] is 29.1 µM [rising, single point].
For `CC1=C(C(=O)O)N2C(=O)C(NC(=O)c3nn(C)cc3Cl)C2SC1` (stereo unspecified), the cell number change turned out to be 17%.
Turning to `O=C(Nc1nnc(-c2ccco2)o1)c1cccc(Cl)c1`, the cell number change was -2.28%.
For `CC12CCC(=O)N1C(C(=O)NNC(=O)c1ccccc1F)CS2` (stereo unspecified), the cell number change was 19.7%. Besides, the AC50 under setting [2] is 4.61 µM [falling, single point]. The half-maximal activity concentration (AC50) under setting [1] was 0.0731 µM [falling, full curve, poor fit].
In the case of `COC(=O)c1ccc(CN2C(=O)NC(Cc3c[nH]c4ccccc34)C2=O)cc1` (stereo unspecified), the cell number change was -2.63%. For the same compound, under setting [1], the half-maximal activity concentration (AC50) was 5.62 µM [falling, single point].
In the case of `CCOC(=O)C1CCCN(C(=O)CNC(=O)Cn2ccc3ccccc3c2=O)C1` (stereo unspecified), the cell number change was -5.08%. Further, under setting [2], the AC50 is 0.092 µM [falling, single point]. Moreover, the half-maximal activity concentration (AC50) under setting [1] was 0.58 µM [falling, single point].
As for `COc1ccc(NC(=O)Cn2nnc(-c3ccccc3NC(=O)c3ccco3)n2)cc1`, the cell number change is -47.8%. Further, the AC50 under setting [2] was 18.4 µM [falling, single point]. Also, the concentration at half-maximal activity (AC50) under setting [1] is 23.1 µM [falling, single point].
Consider `CC(C)NC(=O)c1ccc(-c2cc(C(F)(F)F)ccc2Cl)o1`, for which the cell number change worked out at 6.42%.
Take `Cc1ccc(CNC(=O)c2ccc(N3CCc4ccccc43)c([N+](=O)[O-])c2)cc1`: the cell number change is -53.3%. Under setting [2], the half-maximal activity concentration (AC50) was 23.1 µM [falling, single point]. Moreover, under setting [1], the half-maximal activity concentration (AC50) is 18.4 µM [falling, single point].
For `Cc1cc(C(=O)CSc2nnnn2C)c(C)n1CCc1ccc(F)cc1`, the cell number change is -3.98%. Under setting [1], the AC50 is 1.84 µM [rising, single point].
For the compound `O=C(NCCc1ccccc1)C1CCC(CNS(=O)(=O)c2ccccc2)CC1` (stereo unspecified), the cell number change is -9.85%.
Regarding `COc1ccc(CNC(=O)C2CCCN2C(=O)NC2CCCCC2)cc1` (stereo unspecified), the cell number change is -26.8%. Further, the concentration at half-maximal activity (AC50) under setting [1] was 6.51 µM [falling, single point].
As to `COc1ccc(-c2noc(CCC(=O)N(C)c3cccc(C)c3)n2)cc1`, the AC50 is, setting by setting: under setting [2], 0.164 µM [rising, full curve, poor fit]; under setting [1], 0.184 µM [rising, full curve, poor fit].
Take `O=C(CSc1ccc(Cl)cc1)NNC(=O)c1cccnc1`: the cell number change stood at 31.3%. Under setting [2], the AC50 is 20.6 µM [rising, single point].
As to `C=CCC1c2cccc(C(=O)O)c2C(=O)N1c1cccc(OC)c1` (stereo unspecified), the cell number change turned out to be 1.85%. In addition, the AC50 under setting [1] was 0.00461 µM [falling, full curve, poor fit].
